Measurements reported in PubChem BioAssay AID485353 (National Center for Advancing Translational Sciences (NCATS), 2010).
Out of some 330,000 compounds screened, about 610 (0.18%) were called active. The inconclusive results got no clear call from the source; some entries with a clear call stand among them for comparison. Calls follow the shape of the full dose curve. Potencies of inconclusive entries are doubtful fits and often do not repeat.
Potency is read from the fitted curve at half-maximal effect.

Assay: qHTS of Yeast-based Assay for SARS-CoV PLP; also: nearly all actives have a fitted effect of over 55% in size
Conditions: S. cerevisiae expressing SARS-CoV PLpro; Potency: growth rescue; series mostly up to 32.9 µM
In the case of `O=c1[nH]c(/C(Cl)=C/c2c(F)cccc2Cl)nc2cc(Cl)ccc12`, the Potency is reported as inconclusive: 2.51 µM [activator, partial curve]. In the case of `Cc1cccc2c1-c1sc(C(=O)NCCCN3CCCC(C)C3)cc1CO2` (stereo not drawn), the Potency is reported as inconclusive: 2.82 µM [activator, single point]. For `CCOC(=O)N1CCN(c2c(NCCCN3CCCCCC3)c(=O)c2=O)CC1`, the Potency was “inactive”. In the case of `Oc1c(C=NCc2ccc(F)cc2)[nH]c2ccc(Br)c(Cl)c12`, the Potency is reported as inconclusive: 3.98 µM [activator, single point]. For `Cc1ccc(C2=NC(=O)/C(=C/c3cc(O)c(O)c(Br)c3)S2)cc1`, the Potency was active: 6.31 µM. In the case of `N=c1c(C(=O)NCCN2CCOCC2)cc2c(=O)n3ccccc3nc2n1Cc1ccc(F)cc1`, the Potency is reported as “inactive”. For `CCCOC(=O)c1ccc(Nc2nc(C)cc(=O)[nH]2)cc1`, the Potency was inconclusive: 20 µM [activator, partial curve]. With `CC(=O)NCCN=Cc1sc2ccccc2c1O` the Potency was “inactive”. In the case of `CC(C)CC(=O)Nc1ccc(Oc2ccc(NC(=O)CC(C)C)cc2)cc1`, the Potency is reported as inconclusive: 17.8 µM [activator, partial curve, poor fit]. With `Cc1[nH]n(-c2ccc(Cl)cc2)c(=O)c1/C=N/n1c(C)nc2ccccc2c1=O` the Potency was inconclusive: 20 µM [activator, single point]. In the case of `CCN(CC)CCn1c(NS(=O)(=O)c2ccc(Cl)cc2)nc2ccccc21`, the Potency is reported as “inactive”. In the case of `Cc1cc2[nH]c(=O)c(=O)[nH]c2cc1S(=O)(=O)Nc1cccc(F)c1`, the Potency is reported as inconclusive: 2.82 µM [activator, single point]. With `Cc1ccc2cc(CN(CC(C)C)S(=O)(=O)c3cccc4nonc34)c(=O)[nH]c2c1` the Potency was “inactive”. With `COc1ccccc1OCc1nc(C#N)c(NCc2ccco2)o1` the Potency was “inactive”. With `CCCCOc1ccc(CNC(=S)N/N=C/c2ccc(OC)c(OC)c2)cc1` the Potency was inconclusive: 22.4 µM [activator, single point]. In the case of `[N-]=[N+]=NC1c2ccccc2C(=O)N1Cc1ccccc1` (stereo not drawn), the Potency is reported as inconclusive: 12.6 µM [activator, single point]. For `COc1ccc(C(C(=O)NC(C)(C)C)N(CCO)C(=O)CCC(=O)Nc2cc(C)on2)cc1` (stereo not drawn), the Potency was “inactive”. In the case of `NS(=O)(=O)c1ccc(NC(=S)NNC(=O)c2ccc(Br)o2)cc1`, the Potency is reported as “inactive”. For `CN(Cc1ccccc1)c1nc2c(c(=O)[nH]c(=O)n2C)n1CCSc1nc2ccccc2[nH]1`, the Potency was inconclusive: 2.51 µM [activator, single point]. In the case of `Cc1ccc2cccc(NC(=S)NC(=O)c3ccnn3C)c2n1`, the Potency is reported as inconclusive: 10 µM [activator, partial curve]. With `COc1ccc(S(=O)(=O)NC2CC(=O)N(c3ccc(C)c(C)c3)C2)cc1` (stereo not drawn) the Potency was inconclusive: 3.55 µM [activator, single point]. With `O=C(Nc1nnc(SCc2cccnc2)s1)C1CC(=O)N(c2ccc(F)cc2)C1` (stereo not drawn) the Potency was inconclusive: 12.6 µM [activator, single point]. For `O=C(OCC(=O)N1CCN(c2ccccc2)CC1)c1ccc2ncsc2c1`, the Potency was “inactive”. For `FC(F)Oc1ccc(/C=N/n2c(Cc3ccc(Br)cc3)n[nH]c2=S)cc1`, the Potency was inconclusive: 20 µM [activator, single point]. In the case of `CC(C)[C@H](NC(=O)N1c2ccccc2NC(=O)[C@@H]1C(C)C)C(=O)N1CCC[C@H]1C(=O)O`, the Potency is reported as inconclusive: 10 µM [activator, single point]. In the case of `Brc1ccc(OCc2nc(-c3ccccn3)n[nH]2)cc1`, the Potency is reported as inconclusive: 12.6 µM [activator, single point]. With `Cc1ccccc1NC(=O)/C(=C\c1cccs1)NC(=O)c1ccco1` the Potency was inconclusive: 3.98 µM [activator, partial curve]. With `Cc1c(O)c2cccnc2[nH]c1=O` the Potency was active: 3.55 µM. For `O=C(NNC(=S)NCc1ccccc1)c1ccccc1OC(F)F`, the Potency was inconclusive: 2.51 µM [activator, single point]. In the case of `C#CCOCCOCCOCCNc1nc(N2CCN(C(=O)C([C@@H](C)O)n3cc([C@@H](N)CCCCN)nn3)CC2)nc(N2CCN(C(=O)C([C@@H](C)O)n3cc([C@@H](N)CCCCN)nn3)CC2)n1` (stereo partly drawn), the Potency is reported as inconclusive: 3.98 µM [activator, single point]. For `CN(C)C(/C=C/Nc1ccc(F)cc1)=C(C#N)C#N`, the Potency was inconclusive: 20 µM [activator, single point]. For `O=C(Cn1cnc2c(nnn2Cc2ccc(F)cc2)c1=O)OCc1ccccc1`, the Potency was inconclusive: 3.55 µM [activator, partial curve]. In the case of `Cc1[nH]c2ccccc2c1C(c1ccccn1)N1CCCC1` (stereo not drawn), the Potency is reported as “inactive”. In the case of `Cc1cc(C)c(O)c(NC(=S)NC(=O)Cc2ccccc2)c1`, the Potency is reported as “inactive”. With `O=C(COCc1ccccc1)N[C@@H]1c2ccccc2CC[C@H]1OCc1ccccc1` the Potency was inconclusive: 2.24 µM [activator, partial curve]. In the case of `CCNC(=S)N/N=C/c1cc(C)ccc1C`, the Potency is reported as inconclusive: 20 µM [activator, single point]. In the case of `O=c1c(-c2ccccc2)nc(-c2ccccc2)cn1O`, the Potency is reported as inconclusive: 20 µM [activator, single point]. In the case of `CC(C)CNC(=O)c1cc([N+](=O)[O-])ccc1N1CCOCC1`, the Potency is reported as inconclusive: 20 µM [activator, single point]. In the case of `CC1C(c2ccccc2)=[N+]([O-])C2(CCCCC2)N1O` (stereo not drawn), the Potency is reported as inconclusive: 0.398 µM [activator, full curve, poor fit]. In the case of `CCOC(=O)/C(C#N)=N\Nc1ccc(S(=O)(=O)Nc2nc(C)cc(C)n2)cc1`, the Potency is reported as inconclusive: 1.12 µM [activator, partial curve, poor fit]. With `Cc1ccc(OCC(O)Cn2c(NCCc3ccccc3)nc3c2c(=O)[nH]c(=O)n3C)cc1` (stereo not drawn) the Potency was inconclusive: 0.355 µM [activator, partial curve, poor fit]. With `O=C(CCCNS(=O)(=O)c1cccs1)N1CCc2ccccc2C1` the Potency was inconclusive: 0.398 µM [activator, partial curve, poor fit]. For `Cc1c(Br)cccc1NC(=O)c1sccc1-n1cccc1`, the Potency was inconclusive: 3.55 µM [activator, single point].
